System: C-telopeptides (C-Tx)
Conditions: below baseline; Groups 2-4 (18.75 mg every 7 days, 37.5 mg every 14 days, 75 mg every 28 days, i.v.); 56 days stall rest; placebo about 75% above baseline
Excerpt: Bone metabolism is monitored using standard techniques, i.e. serum assays to determine levels of markers of bone turnover, bone resorption and bone formation and ultrasound is used to assess changes in bone density.
Materials and Methods: Sixteen healthy adult thoroughbred horses (eight mares and eight male castrates) which had previously been running at pasture for at least 4 months are used.
The horses are randomly allocated to 4 treatment groups of four horses, each containing two mares and two male castrates. Serum samples are collected and ultrasound measurements are taken on three occasions directly before commencement of stall rest. Assays are conducted on the serum samples to determine pre-confinement levels of C-telopeptides (C-Tx; a collagen breakdown product that is a marker of bone resorption); osteocalcin (a marker of bone turnover) and bone specific alkaline phosphatase (a marker of bone formation). Ultrasound is used to measure the speed of transmission of sound waves through the bone.
Stall rest is commenced the day of first treatment. Serum samples are taken twice weekly and ultrasound measurements are taken each 14 days for the 56 days of the study to monitor changes in bone metabolism markers and in bone density relative to pre-confinement values. At the end of the study the horses are returned to the pasture.

NCCCC(O)(P(=O)(O)O)P(=O)(O)O [alendronate, 4-amino-1-hydroxybutylidene-1,1-bisphosphonic acid monosodium trihydrate] was tested, and the “marker of bone resorption (C-Tx), change relative to baseline” value was “about 75%”.

Reference: patent US20040038944A1, “Compositions and methods of preventing or reducing the risk or incidence of skeletal injuries in horses” (Merck & Co., Inc., priority 2000, published 2004)
